# In the supplement of paper PMC10849652:
# Chains of the proteins cited; added tags and fusions are not shown. Lines headed by an entry give the natural chain unless they say otherwise; changes in a name come on top.
# UniProt Q2TAL8: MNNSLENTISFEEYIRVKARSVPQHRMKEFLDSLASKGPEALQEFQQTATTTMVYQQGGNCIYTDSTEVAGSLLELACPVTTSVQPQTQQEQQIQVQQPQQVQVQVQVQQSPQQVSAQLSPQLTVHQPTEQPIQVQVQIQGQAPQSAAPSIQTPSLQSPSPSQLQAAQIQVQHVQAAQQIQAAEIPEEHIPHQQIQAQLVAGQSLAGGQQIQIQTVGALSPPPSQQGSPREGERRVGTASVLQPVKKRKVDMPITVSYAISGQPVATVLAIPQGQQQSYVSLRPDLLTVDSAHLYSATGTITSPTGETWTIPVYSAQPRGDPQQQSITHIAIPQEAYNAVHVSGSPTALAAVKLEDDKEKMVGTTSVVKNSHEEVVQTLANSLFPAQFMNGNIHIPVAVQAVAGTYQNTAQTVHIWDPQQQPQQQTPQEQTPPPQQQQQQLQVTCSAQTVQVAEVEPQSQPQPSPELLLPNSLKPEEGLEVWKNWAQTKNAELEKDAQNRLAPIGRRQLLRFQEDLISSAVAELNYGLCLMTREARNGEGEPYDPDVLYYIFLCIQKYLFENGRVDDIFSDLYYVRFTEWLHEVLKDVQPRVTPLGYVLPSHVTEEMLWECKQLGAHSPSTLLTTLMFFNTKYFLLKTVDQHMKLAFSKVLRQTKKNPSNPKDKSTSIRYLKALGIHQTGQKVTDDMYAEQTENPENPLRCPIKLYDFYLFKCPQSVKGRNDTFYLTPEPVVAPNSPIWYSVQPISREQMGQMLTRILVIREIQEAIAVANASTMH
# UniProt Q6GMV3: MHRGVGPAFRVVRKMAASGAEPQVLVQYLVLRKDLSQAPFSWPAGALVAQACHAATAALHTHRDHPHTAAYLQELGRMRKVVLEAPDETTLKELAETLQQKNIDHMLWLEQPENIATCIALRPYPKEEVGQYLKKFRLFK
# UniProt Q9BQI7: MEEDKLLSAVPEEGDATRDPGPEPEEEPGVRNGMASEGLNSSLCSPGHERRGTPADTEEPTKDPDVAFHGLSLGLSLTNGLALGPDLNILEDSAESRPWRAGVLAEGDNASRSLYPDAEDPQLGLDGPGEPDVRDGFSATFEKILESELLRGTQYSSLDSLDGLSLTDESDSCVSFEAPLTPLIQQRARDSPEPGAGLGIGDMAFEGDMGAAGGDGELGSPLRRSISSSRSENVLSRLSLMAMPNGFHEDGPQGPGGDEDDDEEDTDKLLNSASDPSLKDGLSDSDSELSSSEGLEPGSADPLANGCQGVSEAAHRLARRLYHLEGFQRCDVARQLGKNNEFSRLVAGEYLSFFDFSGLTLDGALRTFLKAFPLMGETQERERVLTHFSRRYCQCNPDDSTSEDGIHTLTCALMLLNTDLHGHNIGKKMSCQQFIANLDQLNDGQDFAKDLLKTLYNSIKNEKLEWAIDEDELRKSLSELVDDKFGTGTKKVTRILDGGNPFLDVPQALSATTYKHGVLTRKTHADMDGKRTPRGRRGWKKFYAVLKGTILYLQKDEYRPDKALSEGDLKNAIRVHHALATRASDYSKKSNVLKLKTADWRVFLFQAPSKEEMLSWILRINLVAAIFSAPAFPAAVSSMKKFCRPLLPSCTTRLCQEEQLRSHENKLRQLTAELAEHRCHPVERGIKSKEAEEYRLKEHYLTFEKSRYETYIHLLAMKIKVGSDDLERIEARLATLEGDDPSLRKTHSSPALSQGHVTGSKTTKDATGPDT
# UniProt Q12974: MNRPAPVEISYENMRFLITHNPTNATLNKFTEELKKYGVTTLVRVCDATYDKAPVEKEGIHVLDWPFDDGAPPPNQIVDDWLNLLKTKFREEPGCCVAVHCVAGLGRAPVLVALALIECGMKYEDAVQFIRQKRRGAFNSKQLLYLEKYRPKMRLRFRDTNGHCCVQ
# UniProt Q8N8N7: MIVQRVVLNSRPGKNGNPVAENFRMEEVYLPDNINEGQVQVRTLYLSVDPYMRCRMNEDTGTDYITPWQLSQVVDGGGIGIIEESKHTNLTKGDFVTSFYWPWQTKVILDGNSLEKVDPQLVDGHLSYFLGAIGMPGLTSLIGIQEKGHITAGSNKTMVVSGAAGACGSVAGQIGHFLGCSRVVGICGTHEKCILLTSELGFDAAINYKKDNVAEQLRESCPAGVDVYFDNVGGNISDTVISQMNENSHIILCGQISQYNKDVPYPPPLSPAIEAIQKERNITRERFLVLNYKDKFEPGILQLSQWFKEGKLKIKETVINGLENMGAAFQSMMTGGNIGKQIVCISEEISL
# UniProt Q9Y606: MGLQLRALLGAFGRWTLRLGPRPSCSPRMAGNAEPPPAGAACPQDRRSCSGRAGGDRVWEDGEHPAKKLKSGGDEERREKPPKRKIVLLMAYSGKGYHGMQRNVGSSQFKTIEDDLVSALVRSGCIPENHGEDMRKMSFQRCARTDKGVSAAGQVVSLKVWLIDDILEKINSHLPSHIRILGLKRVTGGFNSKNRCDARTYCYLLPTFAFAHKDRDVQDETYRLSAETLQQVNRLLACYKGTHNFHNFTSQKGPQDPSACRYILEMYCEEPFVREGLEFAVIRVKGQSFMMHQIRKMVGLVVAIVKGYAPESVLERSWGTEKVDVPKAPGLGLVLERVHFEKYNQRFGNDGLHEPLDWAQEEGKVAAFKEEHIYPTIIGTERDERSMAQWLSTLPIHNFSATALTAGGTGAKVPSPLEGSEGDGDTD
# UniProt Q8WU10: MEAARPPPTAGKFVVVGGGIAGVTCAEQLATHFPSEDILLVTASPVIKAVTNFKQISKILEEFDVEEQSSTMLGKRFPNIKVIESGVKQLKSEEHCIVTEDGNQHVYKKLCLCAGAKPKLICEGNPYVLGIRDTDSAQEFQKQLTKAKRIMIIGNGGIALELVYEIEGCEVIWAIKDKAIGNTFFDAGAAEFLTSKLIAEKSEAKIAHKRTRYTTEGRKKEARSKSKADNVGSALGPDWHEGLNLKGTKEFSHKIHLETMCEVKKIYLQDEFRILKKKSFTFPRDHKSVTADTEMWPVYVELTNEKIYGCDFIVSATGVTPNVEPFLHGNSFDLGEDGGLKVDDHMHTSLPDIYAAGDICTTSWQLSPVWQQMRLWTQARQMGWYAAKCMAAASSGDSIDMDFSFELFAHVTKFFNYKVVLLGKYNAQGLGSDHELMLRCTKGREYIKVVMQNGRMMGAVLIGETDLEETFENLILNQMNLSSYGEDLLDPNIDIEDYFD
# UniProt Q13332: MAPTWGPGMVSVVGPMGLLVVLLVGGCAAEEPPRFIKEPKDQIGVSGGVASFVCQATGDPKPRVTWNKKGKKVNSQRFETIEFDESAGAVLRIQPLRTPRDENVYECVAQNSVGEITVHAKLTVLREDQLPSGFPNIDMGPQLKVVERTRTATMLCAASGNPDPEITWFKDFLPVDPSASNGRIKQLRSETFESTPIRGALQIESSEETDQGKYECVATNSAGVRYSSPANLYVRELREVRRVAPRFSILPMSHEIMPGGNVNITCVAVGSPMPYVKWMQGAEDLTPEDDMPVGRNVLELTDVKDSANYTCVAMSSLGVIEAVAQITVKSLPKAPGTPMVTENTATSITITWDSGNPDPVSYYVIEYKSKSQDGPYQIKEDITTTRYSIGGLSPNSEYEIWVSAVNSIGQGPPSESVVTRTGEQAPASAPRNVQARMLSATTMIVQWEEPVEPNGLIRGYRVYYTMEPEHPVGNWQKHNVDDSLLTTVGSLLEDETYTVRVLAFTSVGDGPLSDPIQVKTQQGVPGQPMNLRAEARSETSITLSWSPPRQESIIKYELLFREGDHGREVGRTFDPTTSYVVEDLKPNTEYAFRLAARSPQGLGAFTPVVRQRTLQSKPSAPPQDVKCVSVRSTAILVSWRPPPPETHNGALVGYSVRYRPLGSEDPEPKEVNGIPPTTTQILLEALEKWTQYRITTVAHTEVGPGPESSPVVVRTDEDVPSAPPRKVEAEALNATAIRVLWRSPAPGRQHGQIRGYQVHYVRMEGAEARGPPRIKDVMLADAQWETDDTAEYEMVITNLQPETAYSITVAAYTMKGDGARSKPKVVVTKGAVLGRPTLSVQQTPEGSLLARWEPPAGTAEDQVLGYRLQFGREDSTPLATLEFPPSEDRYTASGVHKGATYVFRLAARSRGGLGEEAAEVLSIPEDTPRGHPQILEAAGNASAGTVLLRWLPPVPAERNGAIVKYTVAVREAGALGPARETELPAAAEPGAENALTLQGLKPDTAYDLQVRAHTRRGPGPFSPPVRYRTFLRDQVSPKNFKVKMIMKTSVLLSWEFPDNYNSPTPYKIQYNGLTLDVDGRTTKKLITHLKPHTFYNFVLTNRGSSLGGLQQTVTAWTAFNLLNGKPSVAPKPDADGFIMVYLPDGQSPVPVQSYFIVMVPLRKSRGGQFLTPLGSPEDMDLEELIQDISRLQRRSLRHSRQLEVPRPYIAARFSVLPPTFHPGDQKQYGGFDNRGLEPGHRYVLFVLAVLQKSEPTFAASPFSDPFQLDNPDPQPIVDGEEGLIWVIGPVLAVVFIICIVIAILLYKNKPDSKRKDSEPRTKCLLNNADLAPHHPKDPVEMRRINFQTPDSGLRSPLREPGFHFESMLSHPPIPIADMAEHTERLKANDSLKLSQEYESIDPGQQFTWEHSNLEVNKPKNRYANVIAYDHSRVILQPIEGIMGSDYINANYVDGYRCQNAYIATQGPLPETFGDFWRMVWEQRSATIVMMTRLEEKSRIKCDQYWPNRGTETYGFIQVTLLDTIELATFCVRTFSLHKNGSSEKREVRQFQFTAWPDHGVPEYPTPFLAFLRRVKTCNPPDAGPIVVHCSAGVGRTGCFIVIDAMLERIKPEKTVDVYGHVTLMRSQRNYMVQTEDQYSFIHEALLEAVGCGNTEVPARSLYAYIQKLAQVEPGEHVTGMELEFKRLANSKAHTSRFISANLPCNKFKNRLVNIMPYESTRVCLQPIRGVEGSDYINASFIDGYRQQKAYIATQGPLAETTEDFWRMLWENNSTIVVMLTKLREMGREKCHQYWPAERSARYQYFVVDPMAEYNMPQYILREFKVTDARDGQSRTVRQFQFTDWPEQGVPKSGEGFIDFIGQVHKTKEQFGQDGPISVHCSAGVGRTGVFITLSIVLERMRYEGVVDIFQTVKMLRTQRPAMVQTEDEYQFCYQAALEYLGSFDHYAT
# UniProt P28074: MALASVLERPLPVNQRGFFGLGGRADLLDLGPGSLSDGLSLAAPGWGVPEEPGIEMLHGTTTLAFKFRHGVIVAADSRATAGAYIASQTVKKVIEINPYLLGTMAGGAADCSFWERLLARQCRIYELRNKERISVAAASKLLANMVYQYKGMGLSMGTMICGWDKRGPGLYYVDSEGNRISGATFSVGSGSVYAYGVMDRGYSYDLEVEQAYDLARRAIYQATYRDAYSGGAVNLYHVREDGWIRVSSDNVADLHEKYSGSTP
# UniProt Q8N0Z8: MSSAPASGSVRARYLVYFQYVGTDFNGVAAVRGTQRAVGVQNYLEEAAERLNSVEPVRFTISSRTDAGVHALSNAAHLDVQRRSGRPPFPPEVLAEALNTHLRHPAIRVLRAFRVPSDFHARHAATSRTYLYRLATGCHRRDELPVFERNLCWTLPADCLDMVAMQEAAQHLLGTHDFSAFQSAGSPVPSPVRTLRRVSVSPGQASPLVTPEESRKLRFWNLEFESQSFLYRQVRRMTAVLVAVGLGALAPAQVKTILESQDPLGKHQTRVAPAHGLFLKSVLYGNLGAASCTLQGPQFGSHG
# UniProt P35236: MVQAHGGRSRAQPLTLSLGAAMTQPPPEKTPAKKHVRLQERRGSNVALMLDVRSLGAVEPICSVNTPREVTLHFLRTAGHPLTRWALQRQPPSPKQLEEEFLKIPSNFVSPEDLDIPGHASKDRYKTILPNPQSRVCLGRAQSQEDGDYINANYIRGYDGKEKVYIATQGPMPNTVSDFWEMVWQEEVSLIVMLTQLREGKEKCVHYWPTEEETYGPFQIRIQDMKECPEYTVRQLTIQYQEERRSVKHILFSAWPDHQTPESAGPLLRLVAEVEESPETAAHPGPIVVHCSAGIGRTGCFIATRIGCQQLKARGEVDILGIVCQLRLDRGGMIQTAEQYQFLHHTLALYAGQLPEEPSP
# UniProt Q99952: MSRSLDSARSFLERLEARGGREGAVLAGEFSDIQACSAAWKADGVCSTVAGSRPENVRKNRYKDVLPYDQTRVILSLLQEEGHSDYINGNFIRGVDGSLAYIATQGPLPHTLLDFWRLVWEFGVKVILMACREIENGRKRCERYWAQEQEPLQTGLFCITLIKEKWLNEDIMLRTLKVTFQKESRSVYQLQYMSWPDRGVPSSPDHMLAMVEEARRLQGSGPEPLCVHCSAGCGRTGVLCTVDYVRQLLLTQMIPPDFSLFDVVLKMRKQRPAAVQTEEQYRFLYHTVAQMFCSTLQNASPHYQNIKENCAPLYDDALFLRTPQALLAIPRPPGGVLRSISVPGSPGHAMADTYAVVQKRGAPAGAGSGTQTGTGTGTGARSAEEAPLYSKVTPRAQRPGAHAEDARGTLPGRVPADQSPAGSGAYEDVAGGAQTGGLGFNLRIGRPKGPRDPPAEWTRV
# This is one part of the list.
# Tests used:
# Assay in all cases: log2 fold change, soluble protein after heating vs DMSO (PISA); higher = thermal stabilisation; K562 cells, 10 uM, 30 min; active = over 0.2 and 3.5 SD of the protein, either way, in both replicates (recomputed)
# [1] = compound: CC1=C(C=C(C=C1)NC(=O)C2=CC(=CC=C2)C(C)(C)C#N)NC3=CC4=C(C=C3)N=CN(C4=O)C
# Method in brief: (§1)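 K562 cells at 2×10^6 cells/mL were treated with 10 μM compound for 30 min. Aliquots were heated for 3 min across 48°C-58°C, pooled, and extracted in PBS with 0.5% NP-40 at 4°C; soluble protein was the supernatant after 21,000xg for 90 min. Soluble protein was quantified by TMTpro 16plex LC-MS/MS with channel sums equalised, and reported as log2 fold change in thermal stability against DMSO controls, with values from duplicates.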
# [2] = compound: CC1=C(C=C(C=C1)NC(=O)C2=CC(=CC=C2)N(C)C)NC(=O)C3=CC=C(C=C3)O
# Method in brief: as §1
# [3] = compound: CC1=CC=C(C=C1)SC2=C3C=C(SC3=CN=C2)C(=O)N
# Method in brief: as §1
# [4] = compound: CC1=NC(=CC=C1)C2=C(N=C(N2)C(C)(C)C)C3=CC4=NC=CN=C4C=C3
# Method in brief: as §1
# Nexturastat A = compound: CCCCN(Cc1ccc(C(=O)NO)cc1)C(=O)Nc1ccccc1 [Nexturastat A]
# Method in brief: as §1
# vemurafenib = compound: CCCS(=O)(=O)Nc1ccc(F)c(C(=O)c2c[nH]c3ncc(-c4ccc(Cl)cc4)cc23)c1F [vemurafenib]
# Method in brief: as §1
# [5] = compound: CCCS(=O)(=O)Nc1ccc(F)c(C(=O)c2c[nH]c3ncc(Cl)cc23)c1F
# Method in brief: as §1
# [6] = compound: CCCc1cc(C)[nH]c(=O)c1CNC(=O)c1cc(-c2ccnc(N3CCN(C)CC3)c2)cc2c1cnn2C(C)C
# Method in brief: as §1
# givinostat = compound: CCN(CC)Cc1ccc2cc(COC(=O)Nc3ccc(C(=O)NO)cc3)ccc2c1 [givinostat]
# Method in brief: as §1
# barasertib = compound: CCN(CCCOc1ccc2c(Nc3cc(CC(=O)Nc4cccc(F)c4)[nH]n3)ncnc2c1)CCOP(=O)(O)O [barasertib]
# Method in brief: as §1
# [7] = compound: CC[C@@H]1C(=O)N(C)c2cnc(Nc3ccc(C(=O)NC4CCN(C)CC4)cc3OC)nc2N1C1CCCC1
# Method in brief: as §1
# volasertib = compound: CC[C@@H]1C(=O)N(C)c2cnc(Nc3ccc(C(=O)N[C@H]4CC[C@H](N5CCN(CC6CC6)CC5)CC4)cc3OC)nc2N1C(C)C [volasertib]
# Method in brief: as §1
# [8] = compound: CC[C@H](C)N1C=C(C2=C(C=C(C=C21)C3=CN=C(C=C3)N4CCNCC4)C(=O)NCC5=C(C=C(NC5=O)C)C)C
# Method in brief: as §1
# epoxomicin = compound: CC[C@H](C)[C@@H](C(=O)N[C@@H]([C@@H](C)O)C(=O)N[C@@H](CC(C)C)C(=O)[C@]1(CO1)C)NC(=O)[C@H]([C@@H](C)CC)N(C)C(=O)C [epoxomicin]
# Method in brief: as §1
# [9] = compound: CN(C)CC(=O)Nc1ccc2[nH]c(=O)c3ccccc3c2c1
# Method in brief: as §1
# [10] = compound: CN1C2=C(C3=C1C(=O)N(N=C3)CC4=CC(=CC=C4)N)SC(=C2)S(=O)C
# Method in brief: as §1
# [11] = compound: CCn1cc(-c2ccnc3[nH]c(-c4cccc(CN(C)C)c4)cc23)c(-c2ccc(NC(=O)N(C)C)cc2)n1
# Method in brief: as §1
# [12] = compound: CN1CCC(CNc2ccc3ncc(-c4cccc(OC(F)(F)F)c4)n3n2)CC1
# Method in brief: as §1
# [13] = compound: CCn1c(C(=O)N(C2CC2)C2CC2)cc2c3c(ncn3C)c(Nc3cc(C)n(C)n3)nc21
# Method in brief: as §1
# rosiglitazone = compound: CN(CCOC1=CC=C(C=C1)C[C@H]2C(=O)NC(=O)S2)C3=CC=CC=N3 (racemic) [rosiglitazone]
# Method in brief: as §1
Target,log2 fold change [1],log2 fold change [2],log2 fold change [3],log2 fold change [4],log2 fold change (Nexturastat A),log2 fold change (vemurafenib),log2 fold change [5],log2 fold change [6],log2 fold change (givinostat),log2 fold change (barasertib),log2 fold change [7],log2 fold change (volasertib),log2 fold change [8],log2 fold change (epoxomicin),log2 fold change [9],log2 fold change [10],log2 fold change [11],log2 fold change [12],log2 fold change [13],log2 fold change (rosiglitazone)
QRICH1 (UniProt Q2TAL8),inactive: 0.064,inactive: -0.021,inactive: 0.06,inactive: 0.192,inactive: 0.158,inactive: 0.173,inactive: 0.122,inactive: -0.215,inactive: 0.07,inactive: 0.214,active: -0.464,inactive: -0.39,inactive: 0.07,inactive: 0.027,inactive: 0.258,inactive: 0,,,,
PTRHD1 (UniProt Q6GMV3),inactive: -0.051,inactive: -0.098,inactive: 0.017,inactive: 0.022,inactive: 0.074,inactive: 0.059,inactive: -0.024,inactive: -0.024,inactive: -0.008,inactive: 0.034,inactive: 0.106,inactive: 0.037,inactive: -0.028,active: 0.415,inactive: -0.056,inactive: 0.019,inactive: 0.086,inactive: 0.078,,
PSD2 (UniProt Q9BQI7),inactive: 0.054,inactive: -0.063,,,inactive: -0.054,inactive: -0.32,,inactive: -0.1,,,,,inactive: -0.237,inactive: 0.003,inactive: -0.033,,,,,
"PSMB2, A0A087WVV1",inactive: 0.033,inactive: 0.044,inactive: 0.015,inactive: 0.056,,inactive: 0.112,inactive: 0.11,inactive: -0.375,inactive: -0.002,inactive: -0.149,inactive: -0.057,inactive: -0.011,inactive: -0.187,,inactive: -0.102,inactive: -0.084,inactive: 0.119,inactive: 0.122,inactive: -0.328,inactive: 0.052
PTP4A2 (UniProt Q12974),inactive: 0.026,inactive: -0.045,inactive: 0.012,inactive: 0.076,inactive: -0.069,inactive: -0.002,inactive: -0.129,inactive: 0.02,inactive: -0.022,inactive: -0.006,inactive: 0.039,inactive: 0.083,inactive: 0.077,inactive: 0.153,inactive: -0.026,inactive: -0.003,,,,
PTGR2 (UniProt Q8N8N7),inactive: -0.022,inactive: -0.058,inactive: 0.022,inactive: -0.056,inactive: -0.175,inactive: -0.022,inactive: -0.021,inactive: 0.234,inactive: 0.139,inactive: 0,active: 1.1,active: 1.27,inactive: 0.154,inactive: -0.006,inactive: 0.181,inactive: 0.025,inactive: -0.117,inactive: -0.278,,
PUS1 (UniProt Q9Y606),inactive: -0.164,inactive: 0.028,inactive: 0.024,inactive: 0.185,inactive: 0.235,inactive: 0.062,inactive: 0.132,,inactive: 0.121,inactive: -0.043,inactive: -0.173,inactive: -0.131,,inactive: -0.039,inactive: 0.016,,inactive: -0.051,inactive: 0.037,inactive: -0.136,inactive: 0.137
PYROXD1 (UniProt Q8WU10),inactive: -0.374,inactive: -0.079,inactive: 0.178,inactive: 0.041,inactive: -0.117,inactive: 0.13,inactive: 0.222,inactive: 0.058,inactive: -0.083,inactive: 0.014,,inactive: -0.079,inactive: -0.099,inactive: -0.153,inactive: 0.028,inactive: 0.003,,,inactive: 0.07,inactive: 0.015
PTPRS (UniProt Q13332),inactive: 0.186,inactive: -0.105,,inactive: -0.091,inactive: 0.076,inactive: -0.472,,,inactive: 0.047,inactive: 0.114,,,inactive: 0.031,inactive: -0.096,inactive: 0.371,inactive: -0.135,inactive: 0.062,inactive: 0.313,inactive: -0.036,inactive: -0.474
PSEN2 (UniProt P49810),inactive: -0.017,inactive: 0.108,,,,,,inactive: -0.04,inactive: -0.005,,,,,,,inactive: 0.173,inactive: 0.088,inactive: -0.009,inactive: 0.007,
PSMB5 isoform 3 (UniProt P28074),inactive: -0.346,inactive: -0.013,inactive: -0.294,,inactive: 0.126,inactive: -0.477,inactive: -0.5,,,inactive: 0.033,inactive: 0.268,inactive: 0.118,,,inactive: -0.426,inactive: 0.238,,,,inactive: 0
PSMB5 (UniProt P28074),inactive: 0.077,inactive: 0.02,inactive: 0.005,inactive: -0.004,inactive: 0.026,inactive: -0.016,inactive: 0.017,inactive: 0.037,inactive: -0.037,inactive: -0.058,inactive: 0.045,inactive: 0.091,inactive: -0.013,,inactive: -0.058,inactive: 0.009,inactive: 0.03,inactive: 0.069,inactive: 0.019,inactive: -0.023
PUSL1 (UniProt Q8N0Z8),inactive: -0.048,inactive: -0.001,,,inactive: 0.17,,,inactive: -0.217,inactive: 0.256,,inactive: 0.096,,,inactive: -0.186,,,inactive: -0.048,inactive: -0.14,inactive: 0.056,
PTPN7 isoform 3 (UniProt P35236),inactive: 0.107,inactive: -0.047,inactive: 0.019,,,inactive: 0.016,inactive: 0.008,,inactive: -0.119,,inactive: 0.1,inactive: -0.275,,,inactive: -0.051,,,,inactive: 0.098,
PTPN18 (UniProt Q99952),inactive: 0.115,inactive: -0.071,,inactive: 0.237,,,,inactive: 0.005,inactive: 0,,inactive: 0.157,,inactive: 0.044,,,,,,inactive: 0.144,

# Only log2 fold change (volasertib) and log2 fold change [9], for some of the entries so far:
Target	log2 fold change (volasertib)	log2 fold change [9]
PTRHD1 (UniProt Q6GMV3)	inactive: 0.037	inactive: -0.056
PSD2 (UniProt Q9BQI7)		inactive: -0.033
